# Test results taken from publication PMC10575874, “Structural insights into the allosteric inhibition of P2X4 receptors” (Nature Communications, 2023).
# No constants are given. Whether binding was seen depends on the method and setting. Some results given as binding are weak or reduced against the parent protein; the word gives no strength.
# B1: zebrafish P2X4 receptor (residues 9-382) (receptor, UniProt F8W463 9-382, looked up)
# chain: DSVSQCFFDYYTSKILIIRSKKVGTLNRFTQALVIAYVIGYVCVYNKGYQDTDTVLSSVTTKVKGIALTNTSELGERIWDVADYIIPPQEDGSFFVLTNMIITTNQTQSKCAENPTPASTCTSHRDCKRGFNDARGDGVRTGRCVSYSASVKTCEVLSWCPLEKIVDPPNPPLLADAENFTVLIKNNIRYPKFNFNKRNILPNINSSYLTHCVFSRKTDPDCPIFRLGDIVGEAEEDFQIMAVHGGVMGVQIRWDCDLDMPQSWCVPRYTFRRLDNKDPDNNVAPGYNFRFAKYYKNSDGTETRTLIKGYGIRFDVMVFGQAGKFNIIPTLLNMGAGLALLGLVNVICDWIVLTFMKRKQHYKEQKYTYVDDFG
# notes: P2X4 receptor, zebrafish (Danio rerio), GenBank AAH66495.1, residues 9-382 (truncation of the N-terminal 8 and the C-terminal 7 residues); Homotrimer; A C-terminal HRV 3C site stood before TGP and the Twin-Strep-tag; residues of the site may remain after cleavage; also called zfP2X4; source: Sf9 (baculovirus), purified (Strep-Tactin, HRV 3C cleavage, SEC), reconstituted into PMAL-C8 amphipol; not …
# Target: zebrafish P2X4 receptor (residues 9-382) (zebrafish) (UniProt F8W463)
# Assay: cryo-EM structure; purified zfP2X4 in PMAL-C8 amphipol, incubated with 50 uM BX430 or 125 uM BAY-1797 for 1 h; C3 symmetry imposed, also processed with C1 symmetry; both purified
binder,measurement,value
B1,binding,binds
